In PubChem BioAssay AID901 (National Center for Advancing Translational Sciences (NCATS), 2007) one finds AC50 data, which are given here for 18 compounds.

The other results are listed elsewhere or left out. These are further read-outs of the screen, such as a control signal, another cell line or another target. No call is given for them. Compounds called inactive in the main read-out are mostly missing here. Words in brackets tell the shape of the fitted curve; partial curves, single points and poor fits give uncertain potencies.

This assay can be described thus: qHTS Assay for Identifying the Cell-Membrane Permeable IMPase Inhibitors. Conditions: CHO-M1 cells, IP1 accumulation, HTRF TR-FRET ratio; measured here: donor channel 620 nm AC50.
Broadly, the AC50 is the concentration at which the activity in the assay is half-maximal. With `Cc1ccc(-c2noc(CSc3nnc(Cc4cccs4)n3-c3ccccc3)n2)cc1`, the half-maximal activity concentration (AC50) was 0.562 µM [falling, single point]. `Cc1cc2ccccc2n2c(SCC(=O)Nc3cccc(C(F)(F)F)c3)nnc12`: the half-maximal activity concentration (AC50) is 8.91 µM [rising, partial curve]. For `CCOC(=O)CSc1nc2ccccc2n1C(=O)OCC`, the AC50 is 0.01 µM [rising, full curve, poor fit]. Consider `COC(=O)c1ccccc1NC(=O)Nc1cccs1`, for which the AC50 is 31.6 µM [falling, single point]. On to `O=C(c1noc2c1CCCC2)N1CCN(c2ccc(F)cc2)CC1`, for which the AC50 was 1.58 µM [falling, partial curve, poor fit]. Turning to `COc1ccc(Cl)cc1NC(=O)c1ncn(-c2ccccc2)n1`, the AC50 was 25.1 µM [rising, single point]. As for `COc1ccc(CNC(=O)CCSCc2cccc(Cl)c2)c(OC)c1`, the half-maximal activity concentration (AC50) was 35.5 µM [falling, single point]. `O=C(CSc1ncnc2c1oc1ccccc12)c1cccs1`: the AC50 was 20 µM [rising, partial curve]. Consider `Cc1c(NC(=O)c2cc(-c3cccs3)on2)c(=O)n(-c2ccccc2)n1C`, for which the half-maximal activity concentration (AC50) was 0.00501 µM [rising, full curve, poor fit]. For the compound `CCC(C)NC(=O)CSC1=Nc2ccccc2C2=NC(CC(=O)NCc3ccccc3)C(=O)N12` (stereo not drawn), the half-maximal activity concentration (AC50) was 17.8 µM [falling, partial curve]. For the compound `CCOc1ccccc1NC(=O)C(Sc1ccccc1)c1ccccc1` (stereo not drawn), the AC50 was 12.6 µM [rising, partial curve, poor fit]. For `N#Cc1cc2c(nc1SCC(=O)Nc1nccs1)CCCCC2`, the concentration at half-maximal activity (AC50) was 31.6 µM [rising, single point].

Take `CCOC(=O)C1CCN(C(=O)c2cn(CCOC)c(=O)c3c2c2ccccc2n3C)CC1`: the AC50 was 0.316 µM [rising, full curve]. With `CC(C)CC(=O)NC(=S)Nc1ccccc1C(=O)Nc1ccccc1`, the concentration at half-maximal activity (AC50) is 5.01 µM [falling, partial curve, poor fit]. For `CCc1nc(N)c(C#N)c(-c2ccncc2)c1C`, the concentration at half-maximal activity (AC50) is 7.94 µM [falling, partial curve, poor fit]. For `Nc1ncnc2c1nc(Br)n2[C@@H]1O[C@H]2COP(=O)(O)O[C@@H]2[C@H]1O`, the AC50 is 1.26 µM [falling, full curve, poor fit]. For `O=C(Nc1cccc(NC(=O)c2cccs2)c1)c1ccco1`, the concentration at half-maximal activity (AC50) was 0.0251 µM [rising, full curve, poor fit].

With `O=C(Cn1nnc(-c2ccccc2F)n1)Nc1cccc2ncccc12`, the concentration at half-maximal activity (AC50) is 0.0631 µM [falling, full curve, poor fit].
